The list shows a part of the results.

The target of this assay is T1, OsSMF1 (Oryza sativa, UniProt Q6ZLB0 1-436).
T1 sequence: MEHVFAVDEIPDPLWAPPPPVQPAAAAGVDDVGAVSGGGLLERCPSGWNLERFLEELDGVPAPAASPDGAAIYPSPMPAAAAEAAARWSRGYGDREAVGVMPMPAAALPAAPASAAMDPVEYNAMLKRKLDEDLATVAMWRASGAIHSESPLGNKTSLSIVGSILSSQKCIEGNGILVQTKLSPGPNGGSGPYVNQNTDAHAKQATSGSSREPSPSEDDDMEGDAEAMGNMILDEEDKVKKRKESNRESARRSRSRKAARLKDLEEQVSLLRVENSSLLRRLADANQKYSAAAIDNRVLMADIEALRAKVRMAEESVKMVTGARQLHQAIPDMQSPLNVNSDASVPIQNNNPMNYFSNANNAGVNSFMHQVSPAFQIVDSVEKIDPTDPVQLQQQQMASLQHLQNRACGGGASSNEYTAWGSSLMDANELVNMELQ
Kind of assay: protein-binding microarray (RPBM); PBS, 2% BSA, 51.3 ng/ul salmon testes DNA, 50 uM zinc acetate, 200 nM TF, 25 C, 1 h; high values mean tight binding. The settings on record: protein: recombinant; tags: N-terminal polyhistidine and DsRed monomer fusion (pET32a); chain copies: 2; label: CyDye5-dUTP incorporated in the synthesized complementary strand; 3' TTTTT single-stranded linker to array surface; dsDNA, one strand shown. An outline of the steps: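 Polyhistidine-tagged DsRed fusions of transcription factors, joined at the N-terminus, were expressed in E. coli BL21-CodonPlus and isolated on Ni–NTA. They were incubated at 200 nM for 1 h at 25 °C on a custom Agilent array, double-stranded and BSA-blocked, in PBS with 2% BSA, salmon testes DNA and 50 µM zinc acetate. The binding signal is per-feature fluorescence intensity (arbitrary units) read on an Axon 4000B scanner after washing.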
In the case of “GGAAACATGAGGGCGTGGGCGGCATATGGGAGATCGTGGGCGGAGTCACCTAGTGCAG”, the binding signal was 3160 fluorescence intensity (a.u.). For the sequence “GGCGGGGCCGAAGCTGACGGGCTCCTCGCCGTCCTTCACGCGGAGTCACCTAGTGCAG”, the binding signal is 3330 fluorescence intensity (a.u.). For the sequence “GGGCCCCTCCCAAATCTCCCATGGTTCCATCCATCCCCATCGGAGTCACCTAGTGCAG”, the binding signal is 3890 fluorescence intensity (a.u.). For “CGGCGGCGGCGGGGTCGATGCGTGACGGCGGCGGCCGGCTCGGAGTCACCTAGTGCAG” the value was 17300 fluorescence intensity (a.u.); for “CCCATGGAAGCTGGGGTGTTACGCATGATGATAGAGGTGTCGGAGTCACCTAGTGCAG”, 3880 fluorescence intensity (a.u.); for “TTATTTCTACTGCCACGTAGGTGCCACGTCAACGCCACGTCGGAGTCACCTAGTGCAG”, 37400 fluorescence intensity (a.u.). For “AATCATAAATTTGTGGGTGAACCTTCTACACACACGTCATCGGAGTCACCTAGTGCAG” the value was 11200 fluorescence intensity (a.u.); for “ATTCGCCTCCGCCGCCCTTCTGGCCACGTCATCTTATTAACGGAGTCACCTAGTGCAG”, 11500 fluorescence intensity (a.u.); for “GCATACCATGTCGATACGTGACGTATATCGAAGGGTAGAGCGGAGTCACCTAGTGCAG”, 5500 fluorescence intensity (a.u.).

With “CATTATCGTCGTCGTCGTCGTCGTAGTCATGTCGTGGGGCCGGAGTCACCTAGTGCAG”, the binding signal was 3820 fluorescence intensity (a.u.). For “GTCGAATCGCACGCACACCTACTCGCGCATCTCATCCTGGCGGAGTCACCTAGTGCAG” the value was 27100 fluorescence intensity (a.u.). For “CTTACAGTTTTATTACTCGTGCTGACGTAGATAATCTTATCGGAGTCACCTAGTGCAG” the value was 12600 fluorescence intensity (a.u.); for “AGGCTGAGCGAATGTTTTGTTTGTTTTGCTCGTCAATTCTCGGAGTCACCTAGTGCAG”, 29400 fluorescence intensity (a.u.). For “GGCAGCCATTCCCACCGCGCCACACGCGCCACACGCCCCGCGGAGTCACCTAGTGCAG” the value was 3240 fluorescence intensity (a.u.); for “CTCTGCACAATTGCACCAACCCCAAAGCTTGGCTAAGCTCCGGAGTCACCTAGTGCAG”, 51000 fluorescence intensity (a.u.); for “CCGCCGCCCTCGCCGCTGCCACGCCGCCGCCGCCGCCCTTCGGAGTCACCTAGTGCAG”, 4700 fluorescence intensity (a.u.). Regarding “ATATGGACAAAATCAGTATTTGCAACCTTGATTGGACTGGCGGAGTCACCTAGTGCAG”, the binding signal is 3450 fluorescence intensity (a.u.).

For “ATGAACATGACTGGGACCATCCCTGATGATCTATCGTCACCGGAGTCACCTAGTGCAG”, the binding signal is 5160 fluorescence intensity (a.u.).

For the sequence “GGAGGAGGATCATATCAGGCGACGATCGATGGCGCTTTCGCGGAGTCACCTAGTGCAG”, the binding signal is 3170 fluorescence intensity (a.u.). Turning to “ATGGAGTATATGACTACTGCATGCGTCACCAAGATAAGCACGGAGTCACCTAGTGCAG”, the binding signal was 5240 fluorescence intensity (a.u.). For “CTTGATTGCTGATTAGTCAGCTGCCTGCGCTGCGTTCTCCCGGAGTCACCTAGTGCAG” the value was 7180 fluorescence intensity (a.u.).

Turning to “CATTCACTTTTCCATTTCTGATGCCATGGGTCTTATTCCACGGAGTCACCTAGTGCAG”, the binding signal was 3200 fluorescence intensity (a.u.).

Turning to “AATATTGAGGCCAGGAGATTTACCAGTTACCACGGATTTGCGGAGTCACCTAGTGCAG”, the binding signal is 4000 fluorescence intensity (a.u.). For “ACTCGGTTGGACAACGTCGTCATTCTCTCGCCATTGGCTGCGGAGTCACCTAGTGCAG” the value was 3540 fluorescence intensity (a.u.).

Consider “AATGTAGGCACCATACCATGACTGTTTTCACACATTGTACCGGAGTCACCTAGTGCAG”, for which the binding signal was 3580 fluorescence intensity (a.u.). For “ATCCTTGTCTTTTGTCTGTTTTGATATCGTACTACGTAGACGGAGTCACCTAGTGCAG” the value was 3250 fluorescence intensity (a.u.).

With “CGATTCCCAACCCTAACCGTCGTCACTGCCACCGCCAGCCCGGAGTCACCTAGTGCAG”, the binding signal was 4150 fluorescence intensity (a.u.). For “TACTCAAGTGACAAGTGTCAAAGTGCGTGTGGTTTTCTACCGGAGTCACCTAGTGCAG” the value was 3970 fluorescence intensity (a.u.).

Turning to “TACAGACCAAATCACCCGAATCGATCTCTGCCGTCCATCTCGGAGTCACCTAGTGCAG”, the binding signal is 3240 fluorescence intensity (a.u.). For “AGCCTATTTATAACACGCGGCGCGGCCGTGTGAGCGCCGCCGGAGTCACCTAGTGCAG” the value was 3580 fluorescence intensity (a.u.). For “TAATTCCTTCCACTAATTACCAAGCGGCAATCGGCGGCCACGGAGTCACCTAGTGCAG” the value was 3320 fluorescence intensity (a.u.); for “GAGGGCCTCCCCGACCTCGCGCTGCTCCACCTCAACTCCACGGAGTCACCTAGTGCAG”, 3420 fluorescence intensity (a.u.); for “TCTCTTACAAATAAACCTGAATACACAAAACTTAGGTGTGCGGAGTCACCTAGTGCAG”, 33600 fluorescence intensity (a.u.). For “TCGGTCTTCGTCCCACGTGTCGTCGACGTGTCGCTTATCTCGGAGTCACCTAGTGCAG” the value was 24300 fluorescence intensity (a.u.); for “TCTCCGACATTGACACAGGCATCACCGGCAACGTCCGACTCGGAGTCACCTAGTGCAG”, 3430 fluorescence intensity (a.u.). “AGCTTTACGAAAGGCCACACCTCGGATTATAAATACTACCCGGAGTCACCTAGTGCAG”: the binding signal is 3920 fluorescence intensity (a.u.). For “GATCCCAACGCCGACCCTACACGTCATCCCTACGCCTCGTCGGAGTCACCTAGTGCAG” the value was 21700 fluorescence intensity (a.u.); for “GGGTCCCACGCTGACTCAGCCGCCACGTCGAATAAAACCGCGGAGTCACCTAGTGCAG”, 23300 fluorescence intensity (a.u.). For “AGCATGTCCGGCACGCCGATGGACGTGTGCGTGGCGCTCGCGGAGTCACCTAGTGCAG” the value was 4870 fluorescence intensity (a.u.); for “GTAGGTATCGTCGTGTCAAAATTTTGATTCCTCCATGACACGGAGTCACCTAGTGCAG”, 3230 fluorescence intensity (a.u.). “AAAGTCTTGAACCGTTTGAGTGATGTCAGATTTAATCCAACGGAGTCACCTAGTGCAG”: the binding signal is 5870 fluorescence intensity (a.u.). For “AGTTTTGCCACGCATATTATCCACTTTCCCATGAGTGCTTCGGAGTCACCTAGTGCAG” the value was 3630 fluorescence intensity (a.u.).

(Values after publication PMC7819943, “Rice protein-binding microarrays: a tool to detect cis-acting elements near promoter regions in rice”.)
